# Measurements taken from PMC4895718.
# By UniProt entry, the sequences of proteins in these tests, tags left out.
# UniProt P08050: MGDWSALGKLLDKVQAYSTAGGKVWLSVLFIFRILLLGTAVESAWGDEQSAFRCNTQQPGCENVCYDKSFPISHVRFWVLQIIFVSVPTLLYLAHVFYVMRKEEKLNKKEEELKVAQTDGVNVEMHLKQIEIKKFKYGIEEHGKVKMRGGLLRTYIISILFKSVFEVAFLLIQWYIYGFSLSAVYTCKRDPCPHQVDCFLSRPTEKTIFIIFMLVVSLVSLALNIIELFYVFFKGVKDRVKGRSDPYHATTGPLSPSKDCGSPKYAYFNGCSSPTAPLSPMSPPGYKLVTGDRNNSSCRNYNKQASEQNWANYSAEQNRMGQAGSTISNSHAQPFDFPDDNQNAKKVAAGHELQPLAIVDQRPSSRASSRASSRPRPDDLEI
# These are yes or no findings as the source states them, for the method shown. Some results given as binding are weak or reduced against the parent protein; the word gives no strength.
# Target: Connexin 43 (Cx43), endogenous in neonatal rat ventricular myocytes (NRVMs) (rat (endogenous in NRVMs)) (UniProt P08050)
# Experiment: SEC; 1% Triton X-100-solubilised NRVM homogenate on TSK-GEL G2000SWXL, 20 mM phosphate buffer pH 7.0, 1 ml/min; fractions by SDS-PAGE and immunoblot; control and Lrp6 knockdown cells
substance,measurement,value
"Connexin 43 (Cx43), endogenous in neonatal rat ventricular myocytes (NRVMs) (from UniProt P08050 1-382)",binding,binds
